From PubChem BioAssay AID330 (DTP/NCI, 2004)
The list does not hold the whole screen: it is rich in T/C values a quarter to a half above the control, in often repeated tests (any T/C) and in doses without a T/C. Other doses and runs of a compound stand elsewhere. T/C is the treated group as % of the vehicle group. Some doses have a count of surviving animals in place of a T/C: the source holds a T/C of zero for them, seemingly a mark for toxic or unscored doses. Some doses without a T/C left all or most animals alive at the check, yet need not have been tolerated: the source hardly ever lists a survival T/C far under the control, and the zero likely stands for such cases as well. Counts of survivors are from the toxicity check (mostly the fifth day) where no day follows; animals may have died later. Schedule codes are those of the source, read here as Q, the interval in days (D) or hours (H), X, the number of doses. Some doses were run more than once; their values stand side by side, smallest first. Where survival is the endpoint, the PubChem record calls one and a half times the control and up active, and a quarter to a half above the control has no call in these data; cut-offs in other NCI protocols can differ. Some T/C values carry the count of animals alive at the toxicity check (mostly the fifth day); where none is given, no animal had died by that day.

Test system: P388 leukemia ip, CD2F1 mice, survival T/C
Experiment: NCI In Vivo Anticancer Drug Screen. Data for tumor model P388 Leukemia (intraperitoneal) in CD2F1 (CDF1) mice
Conditions: T/C endpoint: median survival time, higher T/C = longer survival
[1] = dose: 50.0 mg/kg/injection, schedule: Q01DX009 (ip), vehicle: Klucel (hydroxypropylcellulose) (HPC)
[2] = dose: 100.0 mg/kg/injection, schedule: Q01DX009 (ip), vehicle: Klucel (hydroxypropylcellulose) (HPC)
[3] = dose: 200.0 mg/kg/injection, schedule: Q01DX009 (ip), vehicle: Klucel (hydroxypropylcellulose) (HPC)
[4] = dose: 240.0 mg/kg/injection, schedule: Q01DX005 (ip), vehicle: saline with Tween-80
[5] = dose: 200.0 mg/kg/injection, schedule: Q01DX005 (ip), vehicle: saline with Tween-80
[6] = dose: 200.0 mg/kg/injection, schedule: Q01DX009 (ip), vehicle: saline with Tween-80
[7] = dose: 200.0 mg/kg/injection, schedule: Q01DX009 (ip), vehicle: saline
[8] = dose: 100.0 mg/kg/injection, schedule: Q01DX009 (ip), vehicle: saline
[9] = dose: 200.0 mg/kg/injection, schedule: Q01DX009 (ip), vehicle: other

Which T/C (dose: 6.0 mg/kg/injection, schedule: Q01DX009 (ip), vehicle: saline with Tween-80) does the source give for `COc1cc(O)c2c(O)c3c(c4c2c1[C@]1(C4)C(C)=CCCC1(C)C)[C@H](O)[C@@]1(O)CC(=O)C(C(N)=O)=C(O)[C@@]1(O)C3=O` here?
The T/C was 128 % of control.

What about the survivor count (dose: 24.0 mg/kg/injection, schedule: Q01DX009 (ip), vehicle: saline with Tween-80) of the same molecule?
The survivor count was 4 of 6.

What about the survivor count (dose: 48.0 mg/kg/injection, schedule: Q01DX009 (ip), vehicle: saline with Tween-80) of the same molecule?
Its survivor count is 3 of 6.

What about the T/C [1] of the same molecule?
Its T/C is 131 % of control.

And the T/C [2]?
Its T/C is 127 % of control.

What about the survivor count [2] of the same molecule?
Its survivor count is 6 of 6.

What about the T/C [3] of the same molecule?
Its T/C is 136 % of control.

What about the survivor count [3] of the same molecule?
The survivor count was 0 of 6.

With `CCCCNc1ccc2nnc(C)n2n1` as the molecule, how does the survivor count (dose: 400.0 mg/kg/injection, schedule: Q01DX005 (ip), vehicle: DMSO) read?
Its survivor count is 0 of 6.

And the survivor count (dose: 800.0 mg/kg/injection, schedule: Q01DX005 (ip), vehicle: DMSO)?
Its survivor count is 0 of 6.

What does the source list for `CCCCCCCCCCCCCC[N+](C)(CC(=O)[O-])Cc1ccccc1` (centres undefined)?
survivor count (dose: 60.0 mg/kg/injection, schedule: Q01DX005 (ip), vehicle: saline with Tween-80): 3 of 6; survivor count (dose: 120.0 mg/kg/injection, schedule: Q01DX005 (ip), vehicle: saline with Tween-80): 2 of 6; survivor count [4]: 0 of 6

Which survivor count [5] does the source give for `CC(C)NC(=O)OCc1c(COC(=O)NC(C)C)c(Sc2ccccc2)n2c1CCC2` here?
Its survivor count is 6 of 6.

`CC1CCC[N+](C)([B-](F)(F)F)C1` (centres undefined) was tested. Which survivor count (dose: 200.0 mg/kg/injection, schedule: Q01DX005 (ip), vehicle: saline) did it give?
Its survivor count is 0 of 6.

How did the survivor count [1] turn out when `O/N=C(\C[P+](c1ccccc1)(c1ccccc1)c1ccccc1)c1ccccc1` was run?
Its survivor count is 3 of 6.

And the survivor count [2]?
The survivor count was 0 of 6.

What about the survivor count [3] of the same molecule?
The survivor count was 0 of 6.

How did the survivor count (dose: 60.0 mg/kg/injection, schedule: Q01DX005 (ip), vehicle: Klucel (hydroxypropylcellulose) (HPC)) turn out when `CC1=C(C(=O)Nc2cc(O)ccc2O)C(c2cccc([N+](=O)[O-])c2)C(C(=O)Nc2cc(O)ccc2O)=C(C)N1` was run?
Its survivor count is 6 of 6.

And the survivor count (dose: 120.0 mg/kg/injection, schedule: Q01DX005 (ip), vehicle: Klucel (hydroxypropylcellulose) (HPC))?
The survivor count was 6 of 6.

What about the survivor count (dose: 240.0 mg/kg/injection, schedule: Q01DX005 (ip), vehicle: Klucel (hydroxypropylcellulose) (HPC)) of the same molecule?
Its survivor count is 6 of 6.

With `CN1CCN(c2ccc([N+](=O)[O-])c3no[n+]([O-])c23)CC1` as the molecule, how does the T/C (dose: 5.0 mg/kg/injection, schedule: Q01DX009 (ip), vehicle: saline) read?
Its T/C is 126 % of control.

And the T/C (dose: 10.0 mg/kg/injection, schedule: Q01DX009 (ip), vehicle: saline)?
Its T/C is 134 % of control.

How did the survivor count (dose: 50.0 mg/kg/injection, schedule: Q01DX009 (ip), vehicle: saline) turn out when `CSc1cccc([N+](=O)[O-])c1` was run?
Its survivor count is 6 of 6.

`CC1=C2CCC(O)C2(C)CCC(=O)C1` (centres undefined) was tested. Which survivor count (dose: 400.0 mg/kg/injection, schedule: Q04DX003 (ip), vehicle: Klucel (hydroxypropylcellulose) (HPC)) did it give?
Its survivor count is 3 of 6.

With `O=C(Nc1ccccc1C(=O)O)c1cc([N+](=O)[O-])cc([N+](=O)[O-])c1` as the molecule, how does the T/C [6] read?
Its T/C is 126 % of control [4 of 6 alive].

Which survivor count (dose: 100.0 mg/kg/injection, schedule: Q01DX009 (ip), vehicle: saline with Tween-80) does the source give for `S=c1sc2cccnc2s1` here?
Its survivor count is 3 of 6.

And the survivor count [6]?
The survivor count was 0 of 6.

`Cc1ccc2c(c1)C(=O)C(CN1CCCCC1)CO2` (centres undefined) was tested. Which survivor count (dose: 400.0 mg/kg/injection, schedule: Q04DX003 (ip), vehicle: saline) did it give?
The survivor count was 0 of 6.

`C=C1C(=O)OC2CC1CCC1(C)OC1CCC(C)=CCCC2(C)O` (centres undefined) was tested. Which survivor count (dose: 60.0 mg/kg/injection, schedule: Q01DX009 (ip), vehicle: Klucel (hydroxypropylcellulose) (HPC)) did it give?
The survivor count was 6 of 6.

`N=C(N)SCc1cccc(-c2nc3ccccc3c(=O)o2)c1` was tested. Which survivor count [7] did it give?
The survivor count was 2 of 6.

What does the source list for `CC1(C)N=C(N)N=C(N)N1c1ccc(CCC(=O)Nc2ccc(S(=O)(=O)F)cc2)cc1`?
T/C (dose: 2.9 mg/kg/injection, schedule: Q01DX009 (ip), vehicle: saline with Tween-80): 145 % of control; survivor count [8]: 6 of 6; survivor count (dose: 150.0 mg/kg/injection, schedule: Q01DX009 (ip), vehicle: saline with Tween-80): 6 of 6; survivor count [7]: 6 of 6; survivor count (dose: 400.0 mg/kg/injection, schedule: Q01DX009 (ip), vehicle: saline): 5 of 6

For `CC1=C[C@@H]2c3cccc4c3c(cn4C)C[C@H]2N(C)C1`, which survivor count [5] is on record?
Its survivor count is 2 of 6.

How did the T/C (dose: 3.0 mg/kg/injection, schedule: Q01DX009 (ip), vehicle: saline with Tween-80) turn out when `CSc1ncc(Br)c(Sc2nc(N)nc3nc[nH]c23)n1` was run?
The T/C was 140 % of control.

What about the T/C (dose: 6.25 mg/kg/injection, schedule: Q01DX009 (ip), vehicle: saline with Tween-80) of the same molecule?
Its T/C is 140 % of control.

And the survivor count (dose: 50.0 mg/kg/injection, schedule: Q01DX009 (ip), vehicle: saline with Tween-80)?
The survivor count was 6 of 6.

With `Cc1cc(C)c(OC2=C(c3c(C)cc(C)cc3C)C(=O)c3ccccc32)c(C)c1` as the molecule, how does the survivor count (dose: 400.0 mg/kg/injection, schedule: Q01DX009 (ip), vehicle: saline with Tween-80) read?
The survivor count was 6 of 6.

`OCCN1CCN(CC/C=C2\c3ccccc3Sc3ccc(Cl)cc32)CC1` was tested. Which T/C (dose: 12.5 mg/kg/injection, schedule: Q01DX009 (ip), vehicle: saline) did it give?
The T/C was 126 % of control.

What about the T/C (dose: 12.5 mg/kg/injection, schedule: Q04DX003 (ip), vehicle: saline) of the same molecule?
The T/C was 134 % of control.

What about the T/C (dose: 16.5 mg/kg/injection, schedule: Q01DX009 (ip), vehicle: saline with Tween-80) of the same molecule?
The T/C was 128 % of control.

What about the T/C (dose: 25.0 mg/kg/injection, schedule: Q01DX009 (ip), vehicle: saline with Tween-80) of the same molecule?
Its T/C is 135 % of control.

And the T/C (dose: 25.0 mg/kg/injection, schedule: Q01DX009 (ip), vehicle: saline)?
Its T/C is 126 % of control.

And the T/C (dose: 25.0 mg/kg/injection, schedule: Q04DX003 (ip), vehicle: saline)?
Its T/C is 128 % of control.

And the survivor count (dose: 37.5 mg/kg/injection, schedule: Q01DX009 (ip), vehicle: saline with Tween-80)?
The survivor count was 6 of 6.

And the survivor count (dose: 56.25 mg/kg/injection, schedule: Q01DX009 (ip), vehicle: saline with Tween-80)?
Its survivor count is 1 of 6.

What about the survivor count (dose: 100.0 mg/kg/injection, schedule: Q04DX003 (ip), vehicle: saline) of the same molecule?
Its survivor count is 1 of 6.

Which survivor count (dose: 400.0 mg/kg/injection, schedule: Q04DX003 (ip), vehicle: saline with Tween-80) does the source give for `C/C(=C/c1cc2c(cc1Br)OCO2)[N+](=O)[O-]` here?
The survivor count was 0 of 6.

Which T/C (dose: 5.0 mg/kg/injection, schedule: Q01DX005 (ip), vehicle: distilled water + Tween-80) does the source give for `CC(=O)OCC1OC(N(CCCl)CCCl)C(OC(C)=O)C(OC(C)=O)C1OC(C)=O` (centres undefined) here?
The T/C was 149 % of control.

What about the T/C (dose: 10.0 mg/kg/injection, schedule: Q01DX005 (ip), vehicle: distilled water + Tween-80) of the same molecule?
The T/C was 129, 132, 146 % of control.

And the survivor count (dose: 40.0 mg/kg/injection, schedule: Q01DX005 (ip), vehicle: distilled water + Tween-80)?
Its survivor count is 4 of 5 and 5 of 5.

What about the survivor count (dose: 80.0 mg/kg/injection, schedule: Q01DX005 (ip), vehicle: distilled water + Tween-80) of the same molecule?
Its survivor count is 4 of 5.

`COc1cc(C2C3=C(CC(C)(C)CC3=O)Oc3cc4c(cc32)OCO4)cc(OC)c1OC` (centres undefined) was tested. Which survivor count [4] did it give?
Its survivor count is 6 of 6.

Which survivor count [9] does the source give for `C=C(C)COc1ccc(C)cc1` here?
The survivor count was 2 of 6.

For `O=c1[nH][nH]c2c([N+](=O)[O-])ccc(F)c12`, which survivor count [2] is on record?
The survivor count was 6 of 6.

What about the survivor count [3] of the same molecule?
Its survivor count is 6 of 6.

How did the T/C [8] turn out when `CCN(CC)CCC(=O)/C=C/c1ccccc1` was run?
The T/C was 126 and 138 % of control.

And the survivor count [7]?
The survivor count was 0 of 6.

How did the T/C [7] turn out when `S=C(Nc1ccc(Cl)cc1)SC1CCCCC1` was run?
The T/C was 128 % of control.

Which results are given for `COc1cc2c(cc1OC)C(Cc1cc(OC)c(OC)cc1[N+](=O)[O-])=[N+](C)CC2`?
survivor count [9]: 3 of 6; survivor count (dose: 400.0 mg/kg/injection, schedule: Q01DX009 (ip), vehicle: other): 0 of 6
